The values below come from publication PMC11900815.

Amino acid sequences for entries named in this document (tags omitted).
UniProt Q01196: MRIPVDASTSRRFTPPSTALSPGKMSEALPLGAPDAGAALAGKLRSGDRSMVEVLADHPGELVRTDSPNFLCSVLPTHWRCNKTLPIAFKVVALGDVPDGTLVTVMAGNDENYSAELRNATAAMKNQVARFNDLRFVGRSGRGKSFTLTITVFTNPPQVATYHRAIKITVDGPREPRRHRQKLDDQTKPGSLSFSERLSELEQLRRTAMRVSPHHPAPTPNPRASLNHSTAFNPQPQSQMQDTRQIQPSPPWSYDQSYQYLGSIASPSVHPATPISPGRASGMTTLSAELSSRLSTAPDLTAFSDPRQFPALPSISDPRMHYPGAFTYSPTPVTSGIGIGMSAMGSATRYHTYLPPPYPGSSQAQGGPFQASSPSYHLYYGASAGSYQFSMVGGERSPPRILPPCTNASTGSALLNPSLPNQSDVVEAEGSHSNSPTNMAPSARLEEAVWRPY

This assay deals with T1, Ligand dependent nuclear receptor corepressor (LCOR), endogenous (human (endogenous in A498, CAKI and HEK293T)) (UniProt Q96JN0).
T1 sequence: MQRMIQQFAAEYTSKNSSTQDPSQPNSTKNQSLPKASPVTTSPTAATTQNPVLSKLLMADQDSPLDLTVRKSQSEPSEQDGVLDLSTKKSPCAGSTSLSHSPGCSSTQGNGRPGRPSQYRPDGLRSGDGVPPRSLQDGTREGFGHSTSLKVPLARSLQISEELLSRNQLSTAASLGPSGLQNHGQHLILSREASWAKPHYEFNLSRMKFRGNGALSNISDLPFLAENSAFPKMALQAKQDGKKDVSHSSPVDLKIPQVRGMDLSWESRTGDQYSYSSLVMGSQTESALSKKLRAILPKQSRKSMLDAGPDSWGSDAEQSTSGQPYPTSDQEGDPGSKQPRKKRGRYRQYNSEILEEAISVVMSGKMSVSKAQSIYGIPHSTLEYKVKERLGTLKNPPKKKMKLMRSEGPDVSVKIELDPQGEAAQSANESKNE
In words: co-IP; endogenous proteins in A498, CAKI and HEK293T lysates; primary antibody or IgG overnight at 4°C, protein A/G magnetic beads 4 h, washed with RIPA, western blot.

No constants are given. Whether binding was seen depends on the method and setting. In cells and extracts the contact can be indirect. Some results given as binding are weak or reduced against the parent protein; the word gives no strength.

Take “RUNX family transcription factor 1 (RUNX1), endogenous (from UniProt Q01196 1-453)”: the binding result is on record as “binds”.
